The other results are listed elsewhere or left out. Shown are side measurements of this screen, not its main read-out; they come without a call. Most of these compounds were active or inconclusive in the main read-out, so they are no random draw. Potencies come from curve fits of mixed quality, noted in brackets.
Assay: qHTS Assay for Lipid Storage Modulators in Drosophila S3 Cells;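 as to cell number change: cells counted by Cell Tracker Red CMTPX staining in the red channel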
Conditions: BODIPY lipid droplet fluorescence, 18-24 h; for cell number change: measured here: cell count max response, cells fed with added oleic acid
Summary of the method: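 Laser-scanning cytometry quantifies lipid droplet accumulation (500–530 nm total intensity; droplet/cell object ratio) in oleic acid-fed (400 uM added) Drosophila S3 cells treated with a concentration series. 20 uM Triacsin C defined 100% inhibition.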

[1] = measured here: lipid fluorescence (Fed channel) AC50, cells fed with added oleic acid
[2] = measured here: cell number channel AC50, cells fed with added oleic acid

| SMILES | cell number change | AC50 [1] | AC50 [2] |
| --- | --- | --- | --- |
| CC(C)N1CCN(Cc2ccc(Oc3ncccn3)cc2)CC1CCO (stereo unspecified) | 3.1% | 0.092 µM [falling, full curve, poor fit] | – |
| O=S(=O)(c1ccccc1)c1ncc(C(F)(F)F)cc1Cl | -65.2% | 0.0291 µM [falling, full curve, poor fit] | 5.8 µM [falling, partial curve] |
| C=CCNC(=O)COC(=O)c1cc(S(=O)(=O)N2CCOCC2)ccc1N1CCCCC1 | -22.9% | 6.51 µM [falling, partial curve, poor fit] | 6.51 µM [falling, partial curve, poor fit] |
| CNC(=O)c1sc(Nc2cc(C)ccc2C)nc1C | – | – | 6.51 µM [rising, single point] |
| O=C(NCCCl)Nc1ccc(Cl)c([N+](=O)[O-])c1 | 50.2% | – | 11.6 µM [rising, partial curve] |
| CCOC(=O)CCC(NC(=O)c1ccc(NCN2C(=O)c3ccccc3C2=O)cc1)C(=O)OCC (stereo unspecified) | 34.7% | – | – |
| CC1CCN(CCOc2ccc(Cl)c(Cl)c2)CC1 | -0.647% | 0.58 µM [rising, single point] | – |
| COc1ccc(OC)c(C(=O)CSc2nc3ccccc3n2CC(=O)NC(C)(C)C)c1 | – | 1.3 µM [rising, partial curve] | 2.31 µM [rising, partial curve] |
| Cc1cc(NC(=O)C(C)SCC(=O)OCc2ccc([N+](=O)[O-])cc2)no1 (stereo unspecified) | -13.7% | – | – |
| CCc1ccc(C(=O)/C=C/Nc2ccc(S(=O)(=O)Nc3onc(C)c3C)cc2)cc1 | -43.8% | 18.4 µM [rising, partial curve] | 0.184 µM [rising, partial curve, poor fit] |
| Cc1cc(OCn2ccc(C(=O)O)n2)ccc1Cl | 29.3% | – | – |
| COc1ccc(C2CC(c3ccccc3)=NN2c2ccc(Cl)c(C(=O)O)c2)cc1 (stereo unspecified) | -23% | 9.2 µM [falling, partial curve] | – |
| O=C(c1cc2ccccc2oc1=O)N(Cc1ccco1)C1CCS(=O)(=O)C1 (stereo unspecified) | 3.36% | 0.731 µM [falling, full curve] | – |
| Cc1ccc(Oc2ccc3c(c2)C(=O)N(c2cccc4cccnc24)C3=O)cc1 | -2.56% | 8.2 µM [falling, partial curve] | – |
| COc1ccc(CN2CCNC(=O)C2CC(=O)N(C)Cc2cc(C)no2)cc1OC (stereo unspecified) | 5.78% | 0.00461 µM [rising, full curve, poor fit] | – |
| CC(=O)Nc1ccc(S(=O)(=O)N2CCSC2c2ccccc2Cl)cc1 (stereo unspecified) | -87.4% | – | 29.1 µM [falling, single point] |
| CC(=O)NC(=S)Nc1ccc(NC(=O)COc2ccc(Cl)cc2)cc1 | – | – | 0.82 µM [rising, full curve] |
| CCOc1ccc(-n2c(-c3ccccc3)nnc2-c2ccccc2)cc1 | 8.16% | 0.651 µM [falling, full curve, poor fit] | – |
| COc1ccc(N(C(=O)c2ccco2)S(=O)(=O)c2cc(Cl)c(Cl)cc2Cl)cc1 | 47.5% | 16.4 µM [rising, partial curve] | 29.1 µM [rising, single point] |
| O=S(=O)(c1ccc(Br)cc1)c1nc(-c2ccco2)oc1NCCCn1ccnc1 | -50% | – | 4.61 µM [falling, full curve, poor fit] |

| SMILES | cell number change | AC50 [1] | AC50 [2] |
| --- | --- | --- | --- |
| CCCC(=O)c1cc2c(cc1NC(=O)CC)OCCO2 | 7.79% | – | – |
| Cc1ccccc1NC(=O)C1CCCN(c2ncnc3onc(-c4ccc(F)cc4)c23)C1 (stereo unspecified) | -4.2% | 29.1 µM [rising, single point] | – |
| Cc1oc2ccc(OCc3ccc(F)cc3)cc2c1C(=O)O | -20.9% | 0.184 µM [falling, full curve, poor fit] | – |
| O=C(Nc1ccccc1)c1ccco1 | -9.12% | 4.11 µM [falling, full curve] | – |
| COc1ccccc1NC(=O)C(C)n1cnc2c(oc3nc4c(cc32)CCCC4)c1=O (stereo unspecified) | – | 4.11 µM [rising, single point] | – |
| Cc1cc(OCC(=O)Nc2ccccc2N2CCCCC2)ccc1C(C)C | -50.3% | 29.1 µM [falling, single point] | 29.1 µM [falling, single point] |
| O=C(/C=C/c1cccs1)N1CCN(c2ccc(F)cc2)CC1 | 30.1% | 29.1 µM [rising, single point] | 32.6 µM [rising, single point] |
| c1coc(-c2nc3c4c5c(sc4ncn3n2)CCCC5)c1 | -12.8% | 1.84 µM [rising, partial curve] | – |
| COc1ccc(N2CCN(c3nc(NCCc4ccc(OC)c(OC)c4)nc(OC)n3)CC2)cc1 | 24.9% | – | 0.0651 µM [rising, full curve, poor fit] |
| O=C(NN(c1ccccc1)c1ccccc1)c1ccc([N+](=O)[O-])o1 | 42.5% | 29.1 µM [rising, single point] | 14.6 µM [rising, single point] |
| Cc1ccc(NC(=O)C2CCN(S(=O)(=O)c3cccs3)CC2)c(O)c1 | 5.79% | 6.31 µM [rising, single point] | – |
| CC1CC(C)CN(C(=O)Cn2c(=O)n(CCCC(=O)NCc3ccco3)c(=O)c3sccc32)C1 (stereo unspecified) | -13.3% | 6.51 µM [rising, single point] | – |
| Cn1c(=O)[nH]c(=O)c2c1nc(NCc1ccccc1)n2CCCc1ccccc1 | 2.78% | 29.1 µM [rising, single point] | – |
| CN(C)/C=C(/C(=O)c1ccc(Cl)cc1Cl)S(=O)(=O)c1ccccc1 | -25.7% | – | – |
| CCCNS(=O)(=O)c1ccc(CCC(=O)N2CCC(C)CC2)cc1 | 182% | – | 29.1 µM [rising, single point] |
| COc1ccc(S(=O)(=O)N(C)CC(=O)Nc2ccc(C(F)(F)F)cc2)cc1Cl | -12.9% | – | 6.51 µM [falling, single point] |
| N#Cc1cc2ccccc2n2nnnc12 | 2.25% | 29.1 µM [falling, single point] | – |
| COc1ccc(C2=NOC(Cn3nc(-c4ccccc4)cc3C(=O)O)C2)cc1 (stereo unspecified) | -28.9% | – | 0.092 µM [falling, full curve, poor fit] |
| CCOc1ccccc1CNC(=O)C1CCCN(c2nc3ccccc3o2)C1 (stereo unspecified) | -2.86% | 0.291 µM [rising, full curve, poor fit] | – |
| COc1ccc(NC(=S)N2CCN(S(C)(=O)=O)CC2)cc1 | 16.2% | 18.4 µM [rising, single point] | – |

Among those listed so far, these contain a CF3 group:

| SMILES | cell number change | AC50 [1] | AC50 [2] |
| --- | --- | --- | --- |
| O=S(=O)(c1ccccc1)c1ncc(C(F)(F)F)cc1Cl | -65.2% | 0.0291 µM [falling, full curve, poor fit] | 5.8 µM [falling, partial curve] |
| COc1ccc(S(=O)(=O)N(C)CC(=O)Nc2ccc(C(F)(F)F)cc2)cc1Cl | -12.9% | – | 6.51 µM [falling, single point] |

Remaining list, next part

| SMILES | cell number change | AC50 [1] | AC50 [2] |
| --- | --- | --- | --- |
| COc1ccccc1NC(=O)N1CCCC1C(=O)NCc1ccc(F)cc1 (stereo unspecified) | 0.748% | – | – |
| CCN(CC)C(=O)CP(=O)(c1ccccc1)c1ccccc1 | 2.48% | 6.51 µM [falling, single point] | – |
| CCC(C)NC(=O)C1CCN(C(=O)N(C)C)CC1 (stereo unspecified) | -54.4% | 29.1 µM [falling, single point] | 9.2 µM [falling, partial curve, poor fit] |
| Cc1cc(NC(=O)CSc2nc(-c3ccco3)cc(C(F)(F)F)n2)no1 | -8.88% | 1.84 µM [falling, full curve, poor fit] | – |
| CNC(=O)NC(=O)COC(=O)CCCOc1ccc(OC)cc1 | 1.02% | 0.013 µM [falling, full curve, poor fit] | 0.00517 µM [falling, full curve, poor fit] |
| CC1CCN(c2c(NCC3CCC(C(=O)Nc4ccccn4)CC3)c(=O)c2=O)CC1 (stereo unspecified) | 13.1% | 20.6 µM [rising, single point] | – |
| Cc1ccc(S(=O)(=O)NCCNC(=O)N2CCOCC2)cc1 | -33.9% | 1.16 µM [rising, full curve, poor fit] | 14.6 µM [falling, partial curve] |
| O=C(NCc1ccccn1)c1nc(Cn2cc([N+](=O)[O-])cn2)no1 | 13.1% | 29.1 µM [falling, single point] | – |
| COC(c1ccccc1)(c1ccccc1)C(Oc1nc(C)cc(C)n1)C(=O)O (stereo unspecified) | 39.9% | – | 29.1 µM [rising, partial curve, poor fit] |
| CN(C(=O)COC(=O)CNC(=O)c1cccs1)c1c(N)n(Cc2ccccc2)c(=O)[nH]c1=O | -12.5% | 3.26 µM [rising, partial curve] | – |
| COc1ccccc1CNC(=O)C[n+]1ccccc1 | -2.79% | – | – |
| O=C(NCCc1ccccc1)c1ccccc1NS(=O)(=O)N1CCCC1 | -10.5% | – | – |
| O=C(CC(c1ccco1)C1CCCCC1=O)c1ccco1 (stereo unspecified) | -0.492% | 0.731 µM [falling, full curve] | – |
| COc1cccc(NC(=S)NCc2ccccn2)c1 | 42.6% | – | 3.66 µM [rising, single point] |
| Cc1ccc(NC(=O)CCC(=O)Nc2nnc(C3CCCCC3)s2)cc1 | – | 29.1 µM [falling, single point] | – |
| COc1ccc(S(=O)(=O)NCc2ccccn2)cc1NC(=O)c1ccccc1F | 32.4% | 29.1 µM [falling, single point] | – |
| Clc1ccc2nc(N3CCCCC3)[nH]c2c1 | – | 0.00411 µM [falling, full curve, poor fit] | – |
| CSc1cccc(NC(=O)N2CCCC(CNS(=O)(=O)Cc3ccccc3)C2)c1 (stereo unspecified) | 12.6% | 3.66 µM [rising, full curve, poor fit] | – |
| CN(C)n1cccc1/C=C(\C#N)S(=O)(=O)c1cccc(Cl)c1 | 12.4% | – | – |
| COc1ccc(S(=O)(=O)N(c2onc(C)c2Cl)S(=O)(=O)c2ccc(OC)cc2)cc1 | -27.1% | 0.651 µM [falling, single point] | – |

Reference: PubChem BioAssay AID2685 (National Center for Advancing Translational Sciences (NCATS), 2010)
